# Assay results from the supplement of paper PMC10032668.
# Sequences of proteins named here, by UniProt entry; tags and fusion partners are left off.
# DCTN5, Q9BTE1, UniProt Q9BTE1, whole entry: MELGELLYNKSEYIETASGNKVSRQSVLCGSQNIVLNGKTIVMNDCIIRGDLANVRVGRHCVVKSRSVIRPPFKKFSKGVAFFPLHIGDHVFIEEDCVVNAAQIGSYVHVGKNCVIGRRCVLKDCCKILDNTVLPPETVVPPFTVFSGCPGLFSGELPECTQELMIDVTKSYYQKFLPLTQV
# NDUFS3, O75489, UniProt O75489, whole entry: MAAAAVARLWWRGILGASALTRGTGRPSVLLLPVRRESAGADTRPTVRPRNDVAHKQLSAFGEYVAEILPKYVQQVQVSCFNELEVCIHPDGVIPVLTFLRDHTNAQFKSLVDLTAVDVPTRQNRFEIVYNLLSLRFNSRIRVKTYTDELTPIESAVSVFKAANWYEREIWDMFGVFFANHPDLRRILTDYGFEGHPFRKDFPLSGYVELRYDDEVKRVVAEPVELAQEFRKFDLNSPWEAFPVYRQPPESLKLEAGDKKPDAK
# RNASET2, O00584, UniProt O00584, whole entry: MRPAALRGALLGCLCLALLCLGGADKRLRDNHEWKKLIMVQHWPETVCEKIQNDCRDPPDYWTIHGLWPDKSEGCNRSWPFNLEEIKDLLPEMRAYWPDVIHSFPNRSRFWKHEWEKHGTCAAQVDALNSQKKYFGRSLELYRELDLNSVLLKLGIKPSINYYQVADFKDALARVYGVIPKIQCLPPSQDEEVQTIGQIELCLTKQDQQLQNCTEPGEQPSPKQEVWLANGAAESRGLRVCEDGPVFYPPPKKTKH
# SNX1, Q13596, UniProt Q13596, whole entry: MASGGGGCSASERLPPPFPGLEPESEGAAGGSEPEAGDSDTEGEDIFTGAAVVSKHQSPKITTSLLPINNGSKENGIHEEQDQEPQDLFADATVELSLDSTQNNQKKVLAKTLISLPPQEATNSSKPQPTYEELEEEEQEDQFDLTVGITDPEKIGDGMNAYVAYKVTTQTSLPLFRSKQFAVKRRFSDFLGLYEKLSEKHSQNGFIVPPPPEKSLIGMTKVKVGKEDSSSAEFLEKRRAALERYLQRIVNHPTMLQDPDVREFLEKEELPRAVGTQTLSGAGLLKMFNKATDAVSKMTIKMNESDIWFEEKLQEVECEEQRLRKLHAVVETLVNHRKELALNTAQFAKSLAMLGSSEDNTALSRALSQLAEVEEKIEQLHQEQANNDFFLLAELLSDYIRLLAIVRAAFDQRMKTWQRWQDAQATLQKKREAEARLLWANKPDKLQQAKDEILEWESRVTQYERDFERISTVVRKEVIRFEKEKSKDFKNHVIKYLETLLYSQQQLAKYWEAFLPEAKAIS
# APEX1, P27695, UniProt P27695, whole entry: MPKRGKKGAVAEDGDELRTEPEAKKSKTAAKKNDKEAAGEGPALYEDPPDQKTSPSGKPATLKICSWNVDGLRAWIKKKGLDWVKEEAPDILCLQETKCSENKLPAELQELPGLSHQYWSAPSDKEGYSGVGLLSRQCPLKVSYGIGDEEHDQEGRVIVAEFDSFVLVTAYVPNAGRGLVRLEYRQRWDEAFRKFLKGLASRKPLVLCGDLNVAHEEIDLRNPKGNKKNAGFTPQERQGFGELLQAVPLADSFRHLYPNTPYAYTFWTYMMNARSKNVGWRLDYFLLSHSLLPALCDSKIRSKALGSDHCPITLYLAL
# BUB1B, O60566, UniProt O60566, whole entry: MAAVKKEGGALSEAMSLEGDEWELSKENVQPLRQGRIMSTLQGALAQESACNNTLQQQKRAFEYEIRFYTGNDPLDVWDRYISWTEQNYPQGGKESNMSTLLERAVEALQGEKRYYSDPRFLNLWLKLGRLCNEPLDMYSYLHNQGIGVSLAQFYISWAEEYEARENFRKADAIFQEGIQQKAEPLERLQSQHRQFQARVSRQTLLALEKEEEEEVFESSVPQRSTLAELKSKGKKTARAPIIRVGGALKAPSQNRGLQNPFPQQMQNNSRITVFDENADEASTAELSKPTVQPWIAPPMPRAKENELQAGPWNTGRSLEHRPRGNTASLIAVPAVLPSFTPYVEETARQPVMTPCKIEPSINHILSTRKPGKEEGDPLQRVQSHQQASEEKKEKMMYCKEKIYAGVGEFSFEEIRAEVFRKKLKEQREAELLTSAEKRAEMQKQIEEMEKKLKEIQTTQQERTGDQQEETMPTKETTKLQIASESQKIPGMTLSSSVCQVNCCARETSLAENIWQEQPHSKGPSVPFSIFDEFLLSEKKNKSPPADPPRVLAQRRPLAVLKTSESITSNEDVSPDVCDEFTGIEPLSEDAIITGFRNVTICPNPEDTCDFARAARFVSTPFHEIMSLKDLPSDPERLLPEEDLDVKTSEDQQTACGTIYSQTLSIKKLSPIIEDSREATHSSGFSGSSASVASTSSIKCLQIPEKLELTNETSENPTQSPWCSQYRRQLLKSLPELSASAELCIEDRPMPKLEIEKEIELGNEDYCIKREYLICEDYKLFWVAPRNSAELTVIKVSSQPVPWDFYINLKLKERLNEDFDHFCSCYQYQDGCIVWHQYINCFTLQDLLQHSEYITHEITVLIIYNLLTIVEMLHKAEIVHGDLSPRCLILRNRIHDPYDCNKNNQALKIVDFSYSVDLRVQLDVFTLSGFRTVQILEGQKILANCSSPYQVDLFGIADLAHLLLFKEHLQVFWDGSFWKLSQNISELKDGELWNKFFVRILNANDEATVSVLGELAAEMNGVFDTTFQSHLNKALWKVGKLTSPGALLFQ
# GPN1, Q9HCN4, UniProt Q9HCN4, whole entry: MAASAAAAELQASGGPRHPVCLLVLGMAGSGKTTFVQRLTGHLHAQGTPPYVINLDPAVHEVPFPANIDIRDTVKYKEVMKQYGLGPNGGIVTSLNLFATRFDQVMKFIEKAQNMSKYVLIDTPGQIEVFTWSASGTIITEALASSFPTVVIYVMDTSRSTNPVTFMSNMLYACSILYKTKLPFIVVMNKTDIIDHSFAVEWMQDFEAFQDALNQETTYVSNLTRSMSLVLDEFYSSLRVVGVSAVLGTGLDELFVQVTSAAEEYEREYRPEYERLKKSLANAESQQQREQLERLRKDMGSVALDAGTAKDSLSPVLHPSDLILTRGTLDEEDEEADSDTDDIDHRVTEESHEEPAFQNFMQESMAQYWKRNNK
# HIST1H1E, P10412, UniProt P10412, whole entry: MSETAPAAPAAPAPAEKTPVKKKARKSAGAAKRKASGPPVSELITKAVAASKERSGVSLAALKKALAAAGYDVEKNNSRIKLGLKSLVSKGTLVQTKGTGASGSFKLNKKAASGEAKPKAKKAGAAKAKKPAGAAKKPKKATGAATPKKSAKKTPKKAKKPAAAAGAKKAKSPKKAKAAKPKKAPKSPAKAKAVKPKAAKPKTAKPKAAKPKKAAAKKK
# MAPK1, P28482, UniProt P28482, whole entry: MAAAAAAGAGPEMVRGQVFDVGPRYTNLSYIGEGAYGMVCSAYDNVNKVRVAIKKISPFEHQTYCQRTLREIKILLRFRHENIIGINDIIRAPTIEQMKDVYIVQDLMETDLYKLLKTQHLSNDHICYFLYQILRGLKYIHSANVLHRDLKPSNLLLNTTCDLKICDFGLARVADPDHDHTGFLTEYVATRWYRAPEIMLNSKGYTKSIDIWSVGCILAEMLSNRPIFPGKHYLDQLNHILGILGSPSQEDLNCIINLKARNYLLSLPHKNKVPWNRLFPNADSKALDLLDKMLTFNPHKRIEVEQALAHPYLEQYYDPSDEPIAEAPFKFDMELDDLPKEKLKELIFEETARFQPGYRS
# MYH9, P35579, UniProt P35579, whole entry: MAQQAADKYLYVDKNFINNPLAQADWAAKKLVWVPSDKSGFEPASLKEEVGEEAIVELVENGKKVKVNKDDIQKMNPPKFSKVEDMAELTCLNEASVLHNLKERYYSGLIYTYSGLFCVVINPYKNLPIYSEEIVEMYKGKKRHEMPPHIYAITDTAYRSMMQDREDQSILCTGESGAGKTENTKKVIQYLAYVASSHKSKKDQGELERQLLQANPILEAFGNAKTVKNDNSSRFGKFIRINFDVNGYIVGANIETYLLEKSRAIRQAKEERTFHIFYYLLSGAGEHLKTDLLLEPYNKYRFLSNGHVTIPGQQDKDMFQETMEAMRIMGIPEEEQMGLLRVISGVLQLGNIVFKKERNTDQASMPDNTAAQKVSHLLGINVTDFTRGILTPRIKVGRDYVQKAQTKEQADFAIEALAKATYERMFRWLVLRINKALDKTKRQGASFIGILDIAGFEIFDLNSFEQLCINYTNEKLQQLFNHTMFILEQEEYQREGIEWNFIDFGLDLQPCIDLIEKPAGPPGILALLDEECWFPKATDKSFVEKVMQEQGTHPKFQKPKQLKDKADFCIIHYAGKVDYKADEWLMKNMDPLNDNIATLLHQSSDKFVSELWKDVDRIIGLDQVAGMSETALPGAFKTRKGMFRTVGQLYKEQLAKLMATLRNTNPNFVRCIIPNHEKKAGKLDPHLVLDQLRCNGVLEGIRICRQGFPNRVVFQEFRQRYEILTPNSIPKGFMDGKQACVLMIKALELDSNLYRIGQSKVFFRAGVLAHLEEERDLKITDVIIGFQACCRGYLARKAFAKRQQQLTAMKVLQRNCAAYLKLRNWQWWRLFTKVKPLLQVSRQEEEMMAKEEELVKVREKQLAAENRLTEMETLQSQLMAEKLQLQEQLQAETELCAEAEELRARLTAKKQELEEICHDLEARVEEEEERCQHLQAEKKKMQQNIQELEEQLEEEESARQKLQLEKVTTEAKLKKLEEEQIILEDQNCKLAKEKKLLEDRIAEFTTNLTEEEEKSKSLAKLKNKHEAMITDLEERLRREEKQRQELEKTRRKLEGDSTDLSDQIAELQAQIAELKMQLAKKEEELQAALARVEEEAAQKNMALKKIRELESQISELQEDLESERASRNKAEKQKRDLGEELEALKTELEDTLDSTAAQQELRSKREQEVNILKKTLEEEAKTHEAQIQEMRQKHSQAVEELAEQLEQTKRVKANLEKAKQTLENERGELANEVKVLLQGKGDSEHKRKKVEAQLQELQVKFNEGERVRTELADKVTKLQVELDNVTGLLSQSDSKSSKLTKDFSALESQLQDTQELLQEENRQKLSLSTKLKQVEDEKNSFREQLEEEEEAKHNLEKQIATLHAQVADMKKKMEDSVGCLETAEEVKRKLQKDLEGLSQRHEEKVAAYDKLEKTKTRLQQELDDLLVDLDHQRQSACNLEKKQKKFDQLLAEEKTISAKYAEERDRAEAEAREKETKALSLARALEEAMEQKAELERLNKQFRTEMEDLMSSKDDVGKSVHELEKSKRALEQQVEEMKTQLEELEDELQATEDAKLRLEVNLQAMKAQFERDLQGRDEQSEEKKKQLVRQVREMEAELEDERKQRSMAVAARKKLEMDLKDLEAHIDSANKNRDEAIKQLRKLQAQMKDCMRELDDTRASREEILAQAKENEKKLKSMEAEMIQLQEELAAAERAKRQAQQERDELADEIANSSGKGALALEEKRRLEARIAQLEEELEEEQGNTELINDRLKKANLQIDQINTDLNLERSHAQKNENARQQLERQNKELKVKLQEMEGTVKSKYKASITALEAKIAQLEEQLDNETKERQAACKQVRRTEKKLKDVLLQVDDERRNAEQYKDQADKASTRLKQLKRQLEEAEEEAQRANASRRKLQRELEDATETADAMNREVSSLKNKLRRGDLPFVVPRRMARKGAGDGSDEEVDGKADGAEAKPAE
# NELFA, Q9H3P2, UniProt Q9H3P2, whole entry: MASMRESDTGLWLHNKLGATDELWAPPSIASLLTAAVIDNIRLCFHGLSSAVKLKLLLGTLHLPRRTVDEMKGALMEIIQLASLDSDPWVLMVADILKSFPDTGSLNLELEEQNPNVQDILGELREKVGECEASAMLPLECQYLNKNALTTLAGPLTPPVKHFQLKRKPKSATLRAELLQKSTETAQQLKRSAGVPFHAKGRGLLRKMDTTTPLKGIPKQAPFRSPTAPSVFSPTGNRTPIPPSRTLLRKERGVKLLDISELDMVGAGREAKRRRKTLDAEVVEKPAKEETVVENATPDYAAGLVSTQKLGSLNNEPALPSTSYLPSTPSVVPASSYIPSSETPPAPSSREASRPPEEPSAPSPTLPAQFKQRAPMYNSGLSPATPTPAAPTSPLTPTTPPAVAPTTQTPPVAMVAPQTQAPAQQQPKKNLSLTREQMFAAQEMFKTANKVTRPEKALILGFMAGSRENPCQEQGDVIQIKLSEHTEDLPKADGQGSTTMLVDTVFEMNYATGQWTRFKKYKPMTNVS
# The list shows a part of the results. The list holds hits alone, and they repeat only in part.
# Assays:
# Test in all cases: PRISMA enrichment of interactor (LFQ) in peptide spot vs all other peptide spots (log2 fold change); higher = stronger / more specific binding of the interactor to the peptide
# [1] = target: ABCF1, Q8NE71
# Method: (§1)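 PRISMA: 15-aa overlapping tiles (offset 8 aa) of 60 microproteins, plus SOS1/GLUT1 control peptides, were spot-synthesized on cellulose membranes in triplicate. Membranes were incubated with benzonase-treated HEK293T lysate, and bound proteins were identified by LC-MS/MS with LFQ. Enrichment is the log2 fold change of each protein in one spot versus all other spots. Only interactors passing the significance cutoff are listed.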
# [2] = target: ARGLU1, Q9NWB6
# Method: as §1
# [3] = target: BRD2, P25440
# Method: as §1
# [4] = target: CHD1, O14646
# Method: as §1
# [5] = target: DCTN5, Q9BTE1
# Method: as §1
# [6] = target: GATAD2A, Q86YP4
# Method: as §1
# [7] = target: MAP4, P27816
# Method: as §1
# [8] = target: MRPS9, P82933
# Method: as §1
# [9] = target: NDUFS3, O75489
# Method: as §1
# [10] = target: NOP14, P78316
# Method: as §1
# [11] = target: NUDC, Q9Y266
# Method: as §1
# [12] = target: ORC4, O43929
# Method: as §1
# [13] = target: PDCL3, Q9H2J4
# Method: as §1
# [14] = target: PHF8, Q9UPP1
# Method: as §1
# [15] = target: PSMB2, P49721
# Method: as §1
# [16] = target: RNASET2, O00584
# Method: as §1
# [17] = target: SNX1, Q13596
# Method: as §1
# [18] = target: STAU1, O95793
# Method: as §1
# [19] = target: UBAP2, Q5T6F2
# Method: as §1
# [20] = target: XRCC6, P12956
# Method: as §1
# [21] = target: ABHD14B, Q96IU4
# Method: as §1
# [22] = target: ALYREF, Q86V81
# Method: as §1
# [23] = target: CHP1, Q99653
# Method: as §1
# [24] = target: COA7, Q96BR5
# Method: as §1
# [25] = target: CSTF1, Q05048
# Method: as §1
# [26] = target: DHCR24, Q15392
# Method: as §1
# [27] = target: DR1, Q01658
# Method: as §1
# [28] = target: DSTN, P60981
# Method: as §1
# [29] = target: IDH3B, O43837
# Method: as §1
# [30] = target: NECAP2, Q9NVZ3
# Method: as §1
# [31] = target: PSMD4, P55036
# Method: as §1
# [32] = target: SNAP47, Q5SQN1
# Method: as §1
# [33] = target: ZDBF2, Q9HCK1
# Method: as §1
# [34] = target: ACACA, Q13085
# Method: as §1
# [35] = target: AHSG, P02765
# Method: as §1
# [36] = target: APEX1, P27695
# Method: as §1
# [37] = target: ASPH, Q12797
# Method: as §1
# [38] = target: BSG, P35613
# Method: as §1
# [39] = target: BUB1B, O60566
# Method: as §1
# [40] = target: CENPE, Q02224
# Method: as §1
# [41] = target: CHD4, Q14839
# Method: as §1
# [42] = target: DCTN1, Q14203
# Method: as §1
# [43] = target: DDX28, Q9NUL7
# Method: as §1
# [44] = target: DNTTIP2, Q5QJE6
# Method: as §1
# [45] = target: EWSR1, Q01844
# Method: as §1
# [46] = target: FAM98B, Q52LJ0
# Method: as §1
# [47] = target: GPI, P06744
# Method: as §1
# [48] = target: GPN1, Q9HCN4
# Method: as §1
# [49] = target: HERC5, Q9UII4
# Method: as §1
# [50] = target: HIST1H1E, P10412
# Method: as §1
# [51] = target: HMGA2, P52926
# Method: as §1
# [52] = target: KNOP1, Q1ED39
# Method: as §1
# [53] = target: MAPK1, P28482
# Method: as §1
# [54] = target: MCMBP, Q9BTE3
# Method: as §1
# [55] = target: MCRIP1, C9JLW8
# Method: as §1
# [56] = target: MMTAG2, Q9BU76
# Method: as §1
# [57] = target: MSH6, P52701
# Method: as §1
# [58] = target: MYH9, P35579
# Method: as §1
# [59] = target: NELFA, Q9H3P2
# Method: as §1
# [60] = target: NIP7, Q9Y221
# Method: as §1
# [61] = target: NUFIP2, Q7Z417
# Method: as §1
binder,measurement,setting,value
RLHFCNILLMKASHK [RP3-332B22.1],PRISMA enrichment of interactor (log2),[1],10.3
same,PRISMA enrichment of interactor (log2),[2],5.75
same,PRISMA enrichment of interactor (log2),[3],4.41
same,PRISMA enrichment of interactor (log2),[4],7.53
same,PRISMA enrichment of interactor (log2),[5],5.8
same,PRISMA enrichment of interactor (log2),[6],4.62
same,PRISMA enrichment of interactor (log2),[7],6
same,PRISMA enrichment of interactor (log2),[8],5.57
same,PRISMA enrichment of interactor (log2),[9],7.3
same,PRISMA enrichment of interactor (log2),[10],5.52
same,PRISMA enrichment of interactor (log2),[11],4.54
same,PRISMA enrichment of interactor (log2),[12],4.92
same,PRISMA enrichment of interactor (log2),[13],4.67
same,PRISMA enrichment of interactor (log2),[14],5.46
same,PRISMA enrichment of interactor (log2),[15],4.78
same,PRISMA enrichment of interactor (log2),[16],3.96
same,PRISMA enrichment of interactor (log2),[17],4.39
same,PRISMA enrichment of interactor (log2),[18],5.75
same,PRISMA enrichment of interactor (log2),[19],6.15
same,PRISMA enrichment of interactor (log2),[20],5.54
MSSYLTSEPRWAGNR [TBX5-AS1],PRISMA enrichment of interactor (log2),[1],4.7
same,PRISMA enrichment of interactor (log2),[21],6.91
same,PRISMA enrichment of interactor (log2),[22],6.54
same,PRISMA enrichment of interactor (log2),[23],5.71
same,PRISMA enrichment of interactor (log2),[24],5.63
same,PRISMA enrichment of interactor (log2),[25],4.3
same,PRISMA enrichment of interactor (log2),[26],6.24
same,PRISMA enrichment of interactor (log2),[27],4.36
same,PRISMA enrichment of interactor (log2),[28],8.1
same,PRISMA enrichment of interactor (log2),[29],6.53
same,PRISMA enrichment of interactor (log2),[30],4.92
same,PRISMA enrichment of interactor (log2),[31],5.4
same,PRISMA enrichment of interactor (log2),[32],6.44
same,PRISMA enrichment of interactor (log2),[33],4.14
EVLKSKPNSSHWHTG [GAS5],PRISMA enrichment of interactor (log2),[1],5.13
same,PRISMA enrichment of interactor (log2),[34],5.53
same,PRISMA enrichment of interactor (log2),[35],3.7
same,PRISMA enrichment of interactor (log2),[36],6.1
same,PRISMA enrichment of interactor (log2),[37],3.6
same,PRISMA enrichment of interactor (log2),[38],4.2
same,PRISMA enrichment of interactor (log2),[39],5.13
same,PRISMA enrichment of interactor (log2),[40],4.22
same,PRISMA enrichment of interactor (log2),[41],5.17
same,PRISMA enrichment of interactor (log2),[42],5.44
same,PRISMA enrichment of interactor (log2),[43],6.29
same,PRISMA enrichment of interactor (log2),[44],4.6
same,PRISMA enrichment of interactor (log2),[28],7.14
same,PRISMA enrichment of interactor (log2),[45],5.87
same,PRISMA enrichment of interactor (log2),[46],7.4
same,PRISMA enrichment of interactor (log2),[47],4.64
same,PRISMA enrichment of interactor (log2),[48],4.9
same,PRISMA enrichment of interactor (log2),[49],5.29
same,PRISMA enrichment of interactor (log2),[50],5.36
same,PRISMA enrichment of interactor (log2),[51],3.94
same,PRISMA enrichment of interactor (log2),[52],5.03
same,PRISMA enrichment of interactor (log2),[53],6.8
same,PRISMA enrichment of interactor (log2),[54],4.9
same,PRISMA enrichment of interactor (log2),[55],3.92
same,PRISMA enrichment of interactor (log2),[56],4.7
same,PRISMA enrichment of interactor (log2),[57],5.39
same,PRISMA enrichment of interactor (log2),[58],5.67
same,PRISMA enrichment of interactor (log2),[59],4.39
same,PRISMA enrichment of interactor (log2),[60],4.18
same,PRISMA enrichment of interactor (log2),[61],4.93

# A portion of the results above, for reference:
binder,measurement,setting,value
RLHFCNILLMKASHK [RP3-332B22.1],PRISMA enrichment of interactor (log2),[14],5.46
same,PRISMA enrichment of interactor (log2),[15],4.78
same,PRISMA enrichment of interactor (log2),[16],3.96
same,PRISMA enrichment of interactor (log2),[17],4.39
